This series relates to calf thymus topoisomerase II versus gyrase of E. coli. Briefly: Selectivity index (IC100 Topo II versus IC100 Gyrase). It is filed as biochemical. To be noted: selectivity index calculated from IC100, Topo II and IC100, Gyrase.
With `O=C(O)c1cn(C2CC2)c2cc(N3CCNCC3)c(F)cc2c1=O` [Ciprofloxacin, 1-cyclopropyl-6-fluoro-7-(piperazin-1-yl)-4-oxoquinoline-3-carboxylic acid, reference compound], the S.I. is 1,000. The value for `COc1c(N2CCC(CN)(c3ccccn3)C2)c(F)cc2c(=O)c(C(=O)O)cn(C3CC3)c12` (stereo not shown) [Compound 3, 1-cyclopropyl-6-fluoro-8-methoxy-7-[{3-aminomethyl-3-(pyridin-2-yl)pyrrolidin}-1-yl]-4-oxo-1,4-dihydroquinolin-3-carboxylic acid] was 5,000. With `COc1c(N2CCC(N)(c3ccncc3)C2)c(F)cc2c(=O)c(C(=O)O)cn(C3CC3)c12` (stereo not shown) [Compound 11, 1-cyclopropyl-6-fluoro-8-methoxy-7-[{3-amino-3-(pyridin-4-yl)pyrrolidin}-1-yl]-4-oxo-1,4-dihydroquinolin-3-carboxylic acid], the S.I. is on record as 2,500. Take `CC1CN(c2c(F)c(N)c3c(=O)c(C(=O)O)cn(C4CC4)c3c2F)CC(C)N1` (stereo not shown) [Sparfloxacin, 1-cyclopropyl-5-amino-6,8-difluoro-7-(3,5-dimethylpiperazin-1-yl)-4-oxoquinoline-3-carboxylic acid, reference compound]: the S.I. is listed as 500.

The record behind these values is patent US7012144B2, “Quinolone carboxylic acid derivatives” (Korea Research Institute of Chemical Technology, priority 2001, dated 2006).
